Assay results published in the supplement of paper PMC12067093, “Discovery and optimisation of a covalent ligand for TRIM25 and its application to targeted protein ubiquitination” (Chemical Science, 2025).
The other results are listed elsewhere or left out.

Sequences of proteins named here, by UniProt entry; tags and fusion partners are left off. A change or cut given only in a name is not applied to a line headed by its entry.
UniProt P20645: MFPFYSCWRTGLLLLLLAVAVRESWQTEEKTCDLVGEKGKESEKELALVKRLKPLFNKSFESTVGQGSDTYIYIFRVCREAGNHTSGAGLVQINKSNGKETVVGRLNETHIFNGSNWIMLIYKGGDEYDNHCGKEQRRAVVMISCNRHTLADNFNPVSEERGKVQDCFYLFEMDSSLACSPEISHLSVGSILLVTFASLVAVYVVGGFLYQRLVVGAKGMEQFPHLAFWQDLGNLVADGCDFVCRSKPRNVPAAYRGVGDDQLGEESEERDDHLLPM
UniProt Q9Y6R4: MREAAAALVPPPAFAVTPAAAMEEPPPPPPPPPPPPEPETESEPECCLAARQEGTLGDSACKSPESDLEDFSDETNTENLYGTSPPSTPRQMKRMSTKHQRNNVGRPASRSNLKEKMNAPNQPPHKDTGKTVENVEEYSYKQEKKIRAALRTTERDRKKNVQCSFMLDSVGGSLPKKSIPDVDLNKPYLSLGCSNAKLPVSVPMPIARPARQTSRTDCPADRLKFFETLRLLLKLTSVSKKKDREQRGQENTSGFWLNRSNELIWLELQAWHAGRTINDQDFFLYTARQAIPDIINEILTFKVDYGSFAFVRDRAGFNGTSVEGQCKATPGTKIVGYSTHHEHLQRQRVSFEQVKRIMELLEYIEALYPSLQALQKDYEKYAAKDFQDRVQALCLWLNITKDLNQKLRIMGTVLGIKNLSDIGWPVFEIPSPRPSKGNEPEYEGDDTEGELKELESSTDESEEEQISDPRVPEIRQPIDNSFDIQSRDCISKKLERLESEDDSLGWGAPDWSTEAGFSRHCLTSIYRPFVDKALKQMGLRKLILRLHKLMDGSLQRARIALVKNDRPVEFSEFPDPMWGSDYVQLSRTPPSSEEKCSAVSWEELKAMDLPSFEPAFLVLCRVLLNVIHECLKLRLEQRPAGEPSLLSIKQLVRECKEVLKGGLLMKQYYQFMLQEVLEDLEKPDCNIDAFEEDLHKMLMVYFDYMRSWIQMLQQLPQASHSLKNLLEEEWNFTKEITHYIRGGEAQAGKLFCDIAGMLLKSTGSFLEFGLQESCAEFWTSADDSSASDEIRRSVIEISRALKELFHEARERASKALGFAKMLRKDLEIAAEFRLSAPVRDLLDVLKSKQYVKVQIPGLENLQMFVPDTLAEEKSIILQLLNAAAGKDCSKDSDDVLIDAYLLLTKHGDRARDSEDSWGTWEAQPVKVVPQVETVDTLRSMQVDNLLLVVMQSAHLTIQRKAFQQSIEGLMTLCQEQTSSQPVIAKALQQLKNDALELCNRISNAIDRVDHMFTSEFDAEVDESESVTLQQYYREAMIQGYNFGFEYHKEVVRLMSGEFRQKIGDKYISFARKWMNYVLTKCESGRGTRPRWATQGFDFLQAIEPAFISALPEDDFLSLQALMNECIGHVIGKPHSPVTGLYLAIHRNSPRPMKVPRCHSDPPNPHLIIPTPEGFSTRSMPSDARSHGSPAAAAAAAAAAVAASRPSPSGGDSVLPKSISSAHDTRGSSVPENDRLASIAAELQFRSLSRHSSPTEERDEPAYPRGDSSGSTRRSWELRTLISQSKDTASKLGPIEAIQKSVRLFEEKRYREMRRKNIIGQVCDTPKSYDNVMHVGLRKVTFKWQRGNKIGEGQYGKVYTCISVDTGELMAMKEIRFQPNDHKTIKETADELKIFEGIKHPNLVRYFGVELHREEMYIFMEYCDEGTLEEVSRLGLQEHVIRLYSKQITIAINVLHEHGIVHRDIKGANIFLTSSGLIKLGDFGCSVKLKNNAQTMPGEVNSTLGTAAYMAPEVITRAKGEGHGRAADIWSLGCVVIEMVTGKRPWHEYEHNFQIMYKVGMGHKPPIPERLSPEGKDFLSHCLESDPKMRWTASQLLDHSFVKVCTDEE
UniProt Q99698: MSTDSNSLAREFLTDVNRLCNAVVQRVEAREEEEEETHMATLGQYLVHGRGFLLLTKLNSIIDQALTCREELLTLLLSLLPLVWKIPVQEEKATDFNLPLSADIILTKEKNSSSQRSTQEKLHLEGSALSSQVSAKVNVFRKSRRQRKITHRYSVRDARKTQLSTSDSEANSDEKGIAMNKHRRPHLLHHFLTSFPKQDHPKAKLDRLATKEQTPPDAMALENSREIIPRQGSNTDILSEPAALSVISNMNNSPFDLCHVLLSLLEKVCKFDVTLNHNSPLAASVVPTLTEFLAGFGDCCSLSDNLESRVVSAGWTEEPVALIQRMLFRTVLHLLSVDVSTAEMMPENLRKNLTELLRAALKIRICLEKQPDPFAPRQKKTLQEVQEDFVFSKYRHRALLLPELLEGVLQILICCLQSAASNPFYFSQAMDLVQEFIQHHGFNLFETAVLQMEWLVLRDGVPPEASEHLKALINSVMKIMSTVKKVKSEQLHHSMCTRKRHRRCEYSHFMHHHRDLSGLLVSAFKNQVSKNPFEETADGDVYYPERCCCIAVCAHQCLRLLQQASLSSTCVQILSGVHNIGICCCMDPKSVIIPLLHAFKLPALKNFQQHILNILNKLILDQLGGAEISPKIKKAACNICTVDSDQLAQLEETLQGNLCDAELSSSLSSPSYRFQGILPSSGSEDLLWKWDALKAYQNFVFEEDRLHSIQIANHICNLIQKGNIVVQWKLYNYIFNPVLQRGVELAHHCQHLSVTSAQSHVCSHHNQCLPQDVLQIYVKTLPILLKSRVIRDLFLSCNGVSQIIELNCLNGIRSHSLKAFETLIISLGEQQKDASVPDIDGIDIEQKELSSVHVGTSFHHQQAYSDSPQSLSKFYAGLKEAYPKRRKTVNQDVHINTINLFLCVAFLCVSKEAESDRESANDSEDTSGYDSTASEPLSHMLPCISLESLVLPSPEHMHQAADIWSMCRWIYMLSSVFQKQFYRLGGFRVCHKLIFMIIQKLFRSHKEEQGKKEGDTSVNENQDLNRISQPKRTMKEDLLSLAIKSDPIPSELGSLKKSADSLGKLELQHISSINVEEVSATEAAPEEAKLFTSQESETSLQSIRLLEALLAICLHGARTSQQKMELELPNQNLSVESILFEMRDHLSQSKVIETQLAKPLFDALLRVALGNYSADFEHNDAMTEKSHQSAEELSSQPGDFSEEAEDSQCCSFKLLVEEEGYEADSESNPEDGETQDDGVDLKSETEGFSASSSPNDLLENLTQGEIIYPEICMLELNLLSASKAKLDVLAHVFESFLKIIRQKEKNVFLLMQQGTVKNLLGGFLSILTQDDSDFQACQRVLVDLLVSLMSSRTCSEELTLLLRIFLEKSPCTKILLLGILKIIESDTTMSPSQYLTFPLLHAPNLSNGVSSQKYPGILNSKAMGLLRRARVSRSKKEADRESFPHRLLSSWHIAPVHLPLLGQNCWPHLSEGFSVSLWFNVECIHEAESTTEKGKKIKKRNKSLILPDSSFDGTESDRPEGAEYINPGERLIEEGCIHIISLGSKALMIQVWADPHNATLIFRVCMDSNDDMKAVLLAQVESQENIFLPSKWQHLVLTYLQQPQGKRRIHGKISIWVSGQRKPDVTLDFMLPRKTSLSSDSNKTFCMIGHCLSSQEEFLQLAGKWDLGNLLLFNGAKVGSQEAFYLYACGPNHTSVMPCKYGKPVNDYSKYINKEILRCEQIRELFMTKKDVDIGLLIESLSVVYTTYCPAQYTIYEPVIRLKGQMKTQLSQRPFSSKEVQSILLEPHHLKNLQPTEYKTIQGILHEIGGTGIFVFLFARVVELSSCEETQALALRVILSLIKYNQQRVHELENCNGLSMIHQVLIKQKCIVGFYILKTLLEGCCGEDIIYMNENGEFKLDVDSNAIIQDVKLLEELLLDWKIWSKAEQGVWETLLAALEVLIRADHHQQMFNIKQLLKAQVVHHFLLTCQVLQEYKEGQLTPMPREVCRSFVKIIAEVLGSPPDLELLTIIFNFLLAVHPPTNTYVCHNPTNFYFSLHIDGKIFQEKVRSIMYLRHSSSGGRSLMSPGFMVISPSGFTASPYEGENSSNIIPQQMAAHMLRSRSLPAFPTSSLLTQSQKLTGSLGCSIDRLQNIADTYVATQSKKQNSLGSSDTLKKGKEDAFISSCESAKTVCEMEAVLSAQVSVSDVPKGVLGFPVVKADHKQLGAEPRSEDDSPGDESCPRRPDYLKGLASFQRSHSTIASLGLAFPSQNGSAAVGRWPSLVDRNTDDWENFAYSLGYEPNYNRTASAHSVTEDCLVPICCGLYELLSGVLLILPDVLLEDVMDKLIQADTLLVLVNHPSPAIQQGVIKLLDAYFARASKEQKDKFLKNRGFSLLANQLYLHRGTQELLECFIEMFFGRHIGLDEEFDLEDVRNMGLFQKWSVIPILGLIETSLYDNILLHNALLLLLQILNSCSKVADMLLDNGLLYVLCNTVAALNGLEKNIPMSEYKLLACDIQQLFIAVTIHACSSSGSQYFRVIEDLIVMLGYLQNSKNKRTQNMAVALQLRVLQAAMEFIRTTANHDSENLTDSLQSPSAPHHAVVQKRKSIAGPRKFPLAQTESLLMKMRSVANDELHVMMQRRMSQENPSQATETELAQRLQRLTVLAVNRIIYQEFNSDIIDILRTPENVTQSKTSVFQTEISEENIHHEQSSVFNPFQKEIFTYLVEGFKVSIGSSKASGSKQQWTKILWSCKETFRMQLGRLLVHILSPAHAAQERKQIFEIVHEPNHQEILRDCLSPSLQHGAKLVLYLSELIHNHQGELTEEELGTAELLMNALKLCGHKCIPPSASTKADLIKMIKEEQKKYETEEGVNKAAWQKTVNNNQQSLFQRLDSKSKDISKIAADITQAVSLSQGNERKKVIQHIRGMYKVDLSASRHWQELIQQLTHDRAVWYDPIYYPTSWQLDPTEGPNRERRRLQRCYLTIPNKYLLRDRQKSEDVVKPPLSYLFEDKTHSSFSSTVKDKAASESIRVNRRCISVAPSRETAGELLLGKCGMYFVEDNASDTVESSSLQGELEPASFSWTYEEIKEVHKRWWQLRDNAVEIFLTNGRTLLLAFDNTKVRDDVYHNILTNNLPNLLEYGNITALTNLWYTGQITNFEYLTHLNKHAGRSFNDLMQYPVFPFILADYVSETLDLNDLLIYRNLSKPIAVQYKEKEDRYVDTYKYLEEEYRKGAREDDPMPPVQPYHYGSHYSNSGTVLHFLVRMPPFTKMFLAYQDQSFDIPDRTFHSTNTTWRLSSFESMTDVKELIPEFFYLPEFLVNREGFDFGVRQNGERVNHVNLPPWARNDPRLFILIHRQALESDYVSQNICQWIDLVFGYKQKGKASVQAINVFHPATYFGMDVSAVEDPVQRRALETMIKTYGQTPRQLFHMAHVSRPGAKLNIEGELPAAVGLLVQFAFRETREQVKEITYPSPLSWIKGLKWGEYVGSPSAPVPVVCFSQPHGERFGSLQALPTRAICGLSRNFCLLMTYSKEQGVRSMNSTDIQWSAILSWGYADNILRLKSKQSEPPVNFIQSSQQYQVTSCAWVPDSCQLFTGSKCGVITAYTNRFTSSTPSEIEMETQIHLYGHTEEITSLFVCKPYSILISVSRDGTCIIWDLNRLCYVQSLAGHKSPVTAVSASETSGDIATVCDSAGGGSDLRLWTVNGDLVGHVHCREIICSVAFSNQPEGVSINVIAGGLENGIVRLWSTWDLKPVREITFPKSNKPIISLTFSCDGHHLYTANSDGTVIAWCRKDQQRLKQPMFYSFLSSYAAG
UniProt Q9P2G4: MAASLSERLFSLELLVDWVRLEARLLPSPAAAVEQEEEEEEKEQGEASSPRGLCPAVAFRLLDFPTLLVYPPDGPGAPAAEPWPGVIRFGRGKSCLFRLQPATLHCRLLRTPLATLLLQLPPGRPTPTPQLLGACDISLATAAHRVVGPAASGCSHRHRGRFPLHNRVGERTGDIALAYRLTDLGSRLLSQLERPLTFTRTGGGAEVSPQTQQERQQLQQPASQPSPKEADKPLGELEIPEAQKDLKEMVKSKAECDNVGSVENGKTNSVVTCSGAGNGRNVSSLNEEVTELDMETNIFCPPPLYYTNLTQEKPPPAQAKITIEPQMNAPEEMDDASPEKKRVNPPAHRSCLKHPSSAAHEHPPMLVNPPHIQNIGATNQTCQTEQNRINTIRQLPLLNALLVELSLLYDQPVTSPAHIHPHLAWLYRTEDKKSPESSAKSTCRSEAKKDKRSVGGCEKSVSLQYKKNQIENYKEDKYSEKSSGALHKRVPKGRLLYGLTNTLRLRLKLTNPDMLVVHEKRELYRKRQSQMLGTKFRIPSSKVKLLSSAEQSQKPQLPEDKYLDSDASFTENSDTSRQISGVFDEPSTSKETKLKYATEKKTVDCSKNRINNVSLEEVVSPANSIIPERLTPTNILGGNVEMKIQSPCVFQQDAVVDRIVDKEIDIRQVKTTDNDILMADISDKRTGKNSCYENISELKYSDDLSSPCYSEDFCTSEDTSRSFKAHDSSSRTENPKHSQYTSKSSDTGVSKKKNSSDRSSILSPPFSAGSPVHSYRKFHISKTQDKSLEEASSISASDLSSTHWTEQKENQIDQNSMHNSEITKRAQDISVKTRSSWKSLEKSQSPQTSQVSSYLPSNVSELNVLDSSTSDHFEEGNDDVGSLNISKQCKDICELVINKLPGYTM

Compound: Cc1cc(ccc1-c1ccccc1)C(=O)N1CCCN(CC1)C(=O)CCl [compound 10]
Assay: probe-labelled cysteine peptide fold change vs DMSO (competition) (log2 fold change); higher = less target engagement (more negative = stronger competition)
Conditions: THP-1, incubation time: 4 h
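Further: competitive profiling in live THP-1 cells: cysteine peptides tagged with an iodoacetamide desthiobiotin (IA-DTB) probe, intensity after compound treatment relative to DMSO-treated cells.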

Target	probe-labelled cysteine peptide fold change (10 µM)	probe-labelled cysteine peptide fold change (50 µM)
MAN2A2_P49641_382_INCPWK (UniProt P49641)	-0.0275	-0.051
MACF1_Q9UPN3_3527_GSNSEIDVDSLNLCLQQYEDLK (UniProt Q9UPN3)	0.128	-0.547
MAN2B2_Q9Y2E5_697_LTHVPQGHDGELLCHR (UniProt Q9Y2E5)	-0.375	-0.113
MAP4_P27816_67_KKPCSETSQIEDTPSSKPTLLANGGHGVEGSDTTGSPTEFLEEK (UniProt P27816)	-0.0589	-0.83
MBNL1_Q9NR56_27_GTCSRPDTECK (UniProt Q9NR56)	0.0284	-0.0688
MACF1_Q9UPN3_892_NDECVLEDNSQR (UniProt Q9UPN3)	0.0852	0.00606
MATR3_P43243_296_GYPHLCSICDLPVHSNK (UniProt P43243)	0.102	0.014
MAP1S_Q66K74_841_HDPLPDPLKVPPPLPDPSSICMVDPEMLPPK (UniProt Q66K74)	-0.162	-0.971
MAP4K1_Q92918_335_SSSLGIPDADCCR (UniProt Q92918)	-0.294	-1.09
MADD_Q8WXG6_1489_LINMTYCPK (UniProt Q8WXG6)	-0.139	-1.56
MARS2_Q96GW9_336_ICVHSHWTVCGQK (UniProt Q96GW9)	-0.0929	-0.174
MCAT_Q8IVS2_120_TVHCQPAIFVASLAAVEK (UniProt Q8IVS2)	-0.204	0.217
LY75_O60449-2_1697_NQCTDHGADMISIHNEEENAFILDTLK (UniProt O60449)	-0.0829	0.022
MAPK12_P53778_42_DLQPVGSGAYGAVCSAVDGR (UniProt P53778)	-0.186	-0.0208
MAEA_Q7L5Y9_136_CGYYNTAVK (UniProt Q7L5Y9)	0.182	-0.0564
MACF1_Q9UPN3_3619_QQNTCHQQLEDLCSWVGQAER (UniProt Q9UPN3)	0.258	-0.151
MAP2K6_P52564_216_TIDAGCK (UniProt P52564)	-0.048	0.239
MAP3K1_Q13233_667_AMLVYTPCHSLAER (UniProt Q13233)	0.0391	0.498
MAPK1_P28482_40_YTNLSYIGEGAYGMVCSAYDNVNK (UniProt P28482)	0.0939	0.0342
MAPRE2_Q15555_279_LREIELLCQEHGQENDDLVQR (UniProt Q15555)	0.0318	-0.133
MAP3K2_Q9Y2U5_512_LQTICLSGTGMK (UniProt Q9Y2U5)	-0.0533	0.105

Target	probe-labelled cysteine peptide fold change (10 µM)	probe-labelled cysteine peptide fold change (50 µM)
MAP1S_Q66K74_435+440_VLFPGCTPPACLLDGLVR (UniProt Q66K74)	-0.0708	-0.133
MAP3K7_O43318_180_ICDFGTACDIQTHMTNNK (UniProt O43318)	0.0358	-0.294
M6PR_P20645_145_RAVVMISCNR (UniProt P20645)	-0.131	-0.164
MAN1A1_P33908_579_WAWEAVEALENHCR (UniProt P33908)	-0.018	-0.0306
MARF1_Q9Y4F3_590_ELCETK (UniProt Q9Y4F3)	-0.156	-0.403
MBNL2_Q5VZF2_43_SCQVENGR (UniProt Q5VZF2)	-0.15	-0.198
MACF1_Q9UPN3_5116_VNSGCVMMENK (UniProt Q9UPN3)	0.527	0.0552
LUC7L_Q9NQ29_97_ERDLFFELDAMDHLESFIAECDRR (UniProt Q9NQ29)	0.215	0.0749
MAP3K20_Q9NYL2_242_SFAELLHQCWEADAK (UniProt Q9NYL2)	0.0722	0.234
MAK16_Q9BXY0_39_NEYSLTGLCNR (UniProt Q9BXY0)	0.173	-0.348
MAP3K4_Q9Y6R4_1322_NIIGQVCDTPK (UniProt Q9Y6R4)	-0.0143	0.218
MACF1_Q9UPN3_6075_ILGADLIFACGETEKPEVR (UniProt Q9UPN3)	-0.00571	0.337
M6PR_P20645_132_GGDEYDNHCGK (UniProt P20645)	-0.358	-0.136
MCCC2_Q9HCC0_131_VSGVECMIIANDATVK (UniProt Q9HCC0)	0.247	0.177
LYAR_Q9NX58_25_HVSVCR (UniProt Q9NX58)	0.265	-0.0267
MAP4K1_Q92918_428_CASGPPPNSPR (UniProt Q92918)	-0.175	-0.144
LY75_O60449_1060_YHCALILNLQK (UniProt O60449)	-0.0365	0.209
MBNL1_Q9NR56_200_GENDCR (UniProt Q9NR56)	0.0644	-0.0227
MACF1_Q9UPN3_877_AVCDYR (UniProt Q9UPN3)	0.102	0.114
LY75_O60449_1060_IPENFFEEESRYHCALILNLQK (UniProt O60449)	-0.177	-0.421
MACF1_Q9UPN3_919_VISPTGNEAMVPSVCFLIPPPNK (UniProt Q9UPN3)	0.24	0.296

Target	probe-labelled cysteine peptide fold change (10 µM)	probe-labelled cysteine peptide fold change (50 µM)
LUC7L_Q9NQ29_43+44_SHLLDCCPHDILAGTR (UniProt Q9NQ29)	0.195	-0.258
MAN2A1_Q16706_840_IYSEVTCFFDHVTHR (UniProt Q16706)	0.14	0.295
MAZ_P56270_339_SHDGAVHKPYNCSHCGK (UniProt P56270)	0.0248	-0.168
MACF1_Q9UPN3_3315_TVSLTVCSAVK (UniProt Q9UPN3)	-0.302	-0.418
MAP4K4_O95819_496_HLEVLQQQLLQEQAMLLECR (UniProt O95819)	0.273	-0.337
LUC7L_Q9NQ29_97_DLFFELDAMDHLESFIAECDRR (UniProt Q9NQ29)	0.323	0.299
LUC7L_Q9NQ29_97_ERDLFFELDAMDHLESFIAECDR (UniProt Q9NQ29)	-0.026	0.216
LYPLA1_O75608_169_DISILQCHGDCDPLVPLMFGSLTVEK (UniProt O75608)	0.178	-0.127
MAT2B_Q9NZL9_231_DVATVCR (UniProt Q9NZL9)	-0.17	-0.0553
LYST_Q99698_2168_GKEDAFISSCESAK (UniProt Q99698)	-0.516	-0.608
LY75_O60449_1089_HFVSLCQK (UniProt O60449)	0.00146	0.179
MAN2C1_Q9NTJ4_584_LLLLNQFHDVVTGSCIQMVAEEAMCHYEDIR (UniProt Q9NTJ4)	0.499	0.485
MACF1_Q9UPN3_1806_HNLIDQDMACAILIR (UniProt Q9UPN3)	0.133	0.288
MAPK3_P27361_82_KISPFEHQTYCQR (UniProt P27361)	-0.0395	-0.187
MACO1_Q8N5G2_315_EDSCTASSK (UniProt Q8N5G2)	-0.144	-0.0445
MAP10_Q9P2G4_605_TVDCSK (UniProt Q9P2G4)	-0.237	-0.237
MAEA_Q7L5Y9_333_LAQPLPMAHCANSR (UniProt Q7L5Y9)	-0.0143	-0.466
M6PR_P20645_32_TCDLVGEK (UniProt P20645)	-0.289	-0.165
LUC7L3_O95232_40_YYLCGFCPAELFTNTR (UniProt O95232)	0.055	0.000444
MACF1_Q9UPN3_2629_EGLLTNEAVLSPGMMHGIVDPENCR (UniProt Q9UPN3)	0.115	0.195
LYST_Q99698_3649_LCYVQSLAGHK (UniProt Q99698)	-0.0877	-0.182

Target	probe-labelled cysteine peptide fold change (10 µM)	probe-labelled cysteine peptide fold change (50 µM)
MACF1_Q9UPN3_5188_LDIEASEAECR (UniProt Q9UPN3)	0.0743	0.184
MACF1_Q9UPN3_7133_QVAQCK (UniProt Q9UPN3)	0.0482	-0.258
LUC7L_Q9NQ29_44_SHLLDCCPHDILAGTR (UniProt Q9NQ29)	0.196	-0.12
MAP10_Q9P2G4_256_AECDNVGSVENGK (UniProt Q9P2G4)	-0.268	0.325
MAP1S_Q66K74_738_SASPHDVDLCLVSPCEFEHR (UniProt Q66K74)	-0.0926	-0.165
MANBA_O00462_213_IEAYNICHLNYFTFSPIYDK (UniProt O00462)	0.396	0.398
MAPK14_Q16539_162_DLKPSNLAVNEDCELK (UniProt Q16539)	-0.0482	-0.128
MARS_P56192_309_QWNTLYLCGTDEYGTATETK (UniProt P56192)	-0.0161	0.0949
LY75_O60449_566_DVDSCGEYNWATVGGR (UniProt O60449)	-0.0863	0.151
MAP3K4_Q9Y6R4-2_1157_CHSDPPNPHLIIPTPEGFR (UniProt Q9Y6R4)	-0.298	-0.553
MACF1_Q9UPN3_5346_IAQLQEALLHCGK (UniProt Q9UPN3)	0.0624	0.0886
MAPK9_P45984_177_TACTNFMMTPYVVTR (UniProt P45984)	-0.494	-1.64
MBD2_Q9UBB5_359_NPAVWLNTSQPLCK (UniProt Q9UBB5)	0.077	-0.266
MAP3K20_Q9NYL2_571_SDSSADCQWLDTLR (UniProt Q9NYL2)	-0.155	-0.343
MBD4_O95243_268_ESVCNK (UniProt O95243)	-0.393	-0.586
MCCC1_Q96RQ3_509_ESLCQAALGLILK (UniProt Q96RQ3)	0.373	0.295
MALT1_Q9UDY8_667_HCLYTR (UniProt Q9UDY8)	-0.0226	-0.319
LY75_O60449_922_TWLIDLGKPTDCSTK (UniProt O60449)	-0.0612	0.0278
MAN2B1_O00754_273_NLCWDVLCVDQPLVEDPR (UniProt O00754)	-0.347	-0.184
MACF1_Q9UPN3_2629_KEGLLTNEAVLSPGMMHGIVDPENCR (UniProt Q9UPN3)	-0.17	-0.249
LY75_O60449_1380_VIEEAVYFHQHSILACK (UniProt O60449)	0.36	0.343
